Results published in the supplement of paper PMC8728848.
This is one part of the list.

How the values were obtained:
Experiment in all cases: glycan array binding signal (z-score within array); higher = stronger binding
Conditions in all cases: glycan notation: IUPAC condensed, linker removed
[1] = target: Gal(b1-3)GlcNAc(b1-3)Gal(b1-4)GlcNAc(b1-2)[Gal(b1-3)GlcNAc(b1-3)Gal(b1-4)GlcNAc(b1-6)]Man(a1-6)[Gal(b1-3)GlcNAc(b1-3)Gal(b1-4)GlcNAc(b1-2)Man(a1-3)]Man(b1-4)GlcNAc(b1-4)[Fuc(a1-6)]GlcNAc
Procedure, shortened: (§1)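 The binding signal is a Z-score computed within each array. Data were drawn from 3228 arrays in the Consortium for Functional Glycomics database, restricted to those with a known protein sequence. Scores were averaged over arrays of the same protein sequence at different concentrations or buffers, and over linkers, and negative values can be taken as non-binding.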

[2] = target: Gal(b1-3)GlcNAc(b1-3)Gal(b1-4)GlcNAc(b1-3)Gal(b1-4)GlcNAc(b1-2)[Gal(b1-3)GlcNAc(b1-3)Gal(b1-4)GlcNAc(b1-3)Gal(b1-4)GlcNAc(b1-6)]Man(a1-6)[Gal(b1-3)GlcNAc(b1-3)Gal(b1-4)GlcNAc(b1-3)Gal(b1-4)GlcNAc(b1-2)Man(a1-3)]Man(b1-4)GlcNAc(b1-4)[Fuc(a1-6)]GlcNAc
Procedure, shortened: as §1

[3] = target: Gal(b1-3)GlcNAc(b1-3)Gal(b1-4)GlcNAc(b1-6)[Gal(b1-3)GlcNAc(b1-3)]Gal(b1-4)Glc
Procedure, shortened: as §1

[4] = target: Gal(b1-3)GlcNAc(b1-3)Gal(b1-4)[Fuc(a1-3)]GlcNAc
Procedure, shortened: as §1

[5] = target: Gal(b1-3)GlcNAc(b1-3)Gal(b1-4)[Fuc(a1-3)]GlcNAc(b1-6)[Gal(b1-3)GlcNAc(b1-3)]Gal(b1-4)Glc
Procedure, shortened: as §1

[6] = target: Gal(b1-3)GlcNAc(b1-3)GalNAc
Procedure, shortened: as §1

[7] = target: Gal(b1-3)GlcNAc(b1-6)Gal(b1-4)GlcNAc
Procedure, shortened: as §1

[8] = target: Gal(b1-3)GlcNAc(b1-6)GalNAc
Procedure, shortened: as §1

[9] = target: Gal(b1-3)GlcNAc(b1-6)[Gal(b1-3)]GalNAc
Procedure, shortened: as §1

Gal(b1-3)GlcNAc6S = target: Gal(b1-3)GlcNAc6S
Procedure, shortened: as §1

[10] = target: Gal(b1-3)[Fuc(a1-4)]GlcNAc
Procedure, shortened: as §1

[11] = target: Gal(b1-3)[Fuc(a1-4)]GlcNAc(b1-2)Man
Procedure, shortened: as §1

[12] = target: Gal(b1-3)[Fuc(a1-4)]GlcNAc(b1-2)Man(a1-3)[Gal(b1-3)[Fuc(a1-4)]GlcNAc(b1-2)Man(a1-6)]Man(b1-4)GlcNAc(b1-4)[Fuc(a1-6)]GlcNAc
Procedure, shortened: as §1

[13] = target: Gal(b1-3)[Fuc(a1-4)]GlcNAc(b1-3)Gal(b1-3)[Fuc(a1-4)]GlcNAc
Procedure, shortened: as §1

[14] = target: Gal(b1-3)[Fuc(a1-4)]GlcNAc(b1-3)Gal(b1-4)[Fuc(a1-3)]GlcNAc
Procedure, shortened: as §1

[15] = target: Gal(b1-3)[Fuc(a1-4)]GlcNAc(b1-6)GalNAc
Procedure, shortened: as §1

[16] = target: Gal(b1-3)[GlcNAc(b1-6)]GalNAc
Procedure, shortened: as §1

[17] = target: Gal(b1-3)[Neu5Ac(a2-6)]GalNAc
Procedure, shortened: as §1

[18] = target: Gal(b1-3)[Neu5Ac(a2-6)]GlcNAc(b1-4)Gal(b1-4)Glc
Procedure, shortened: as §1

[19] = target: Gal(b1-3)[Neu5Ac(b2-6)]GalNAc
Procedure, shortened: as §1

Gal(b1-4)Gal = target: Gal(b1-4)Gal
Procedure, shortened: as §1

[20] = target: Gal(b1-4)GalNAc(a1-3)[Fuc(a1-2)]Gal(b1-4)GlcNAc
Procedure, shortened: as §1

[21] = target: Gal(b1-4)GalNAc(b1-3)[Fuc(a1-2)]Gal(b1-4)GlcNAc
Procedure, shortened: as §1

Gal(b1-4)Glc = target: Gal(b1-4)Glc
Procedure, shortened: as §1

Gal(b1-4)Glc6S = target: Gal(b1-4)Glc6S
Procedure, shortened: as §1

Gal(b1-4)GlcNAc = target: Gal(b1-4)GlcNAc
Procedure, shortened: as §1

[22] = target: Gal(b1-4)GlcNAc(a1-6)Gal(b1-4)GlcNAc
Procedure, shortened: as §1

Gal(b1-4)GlcNAc(b1-2)Man = target: Gal(b1-4)GlcNAc(b1-2)Man
Procedure, shortened: as §1

[23] = target: Gal(b1-4)GlcNAc(b1-2)Man(a1-3)Man(b1-4)GlcNAc(b1-4)GlcNAc
Procedure, shortened: as §1

[24] = target: Gal(b1-4)GlcNAc(b1-2)Man(a1-3)[Gal(b1-4)GlcNAc(b1-2)Man(a1-6)]Man(b1-4)GlcNAc(b1-4)GlcNAc
Procedure, shortened: as §1

[25] = target: Gal(b1-4)GlcNAc(b1-2)Man(a1-3)[Gal(b1-4)GlcNAc(b1-2)Man(a1-6)]Man(b1-4)GlcNAc(b1-4)[Fuc(a1-6)]GlcNAc
Procedure, shortened: as §1

[26] = target: Gal(b1-4)GlcNAc(b1-2)Man(a1-3)[Gal(b1-4)GlcNAc(b1-2)Man(a1-6)][Gal(b1-4)GlcNAc(b1-4)]Man(b1-4)GlcNAc(b1-4)[Fuc(a1-6)]GlcNAc
Procedure, shortened: as §1

[27] = target: Gal(b1-4)GlcNAc(b1-2)Man(a1-3)[Gal(b1-4)GlcNAc(b1-2)Man(a1-6)][GlcNAc(b1-4)]Man(b1-4)GlcNAc(b1-4)[Fuc(a1-6)]GlcNAc
Procedure, shortened: as §1

[28] = target: Gal(b1-4)GlcNAc(b1-2)Man(a1-3)[GlcNAc(b1-2)Man(a1-6)]Man(b1-4)GlcNAc(b1-4)GlcNAc
Procedure, shortened: as §1

[29] = target: Gal(b1-4)GlcNAc(b1-2)Man(a1-3)[GlcNAc(b1-4)][Gal(b1-4)GlcNAc(b1-2)Man(a1-6)]Man(b1-4)GlcNAc(b1-4)GlcNAc
Procedure, shortened: as §1

[30] = target: Gal(b1-4)GlcNAc(b1-2)Man(a1-3)[Man(a1-6)]Man(b1-4)GlcNAc(b1-4)GlcNAc
Procedure, shortened: as §1

[31] = target: Gal(b1-4)GlcNAc(b1-2)Man(a1-6)Man(b1-4)GlcNAc(b1-4)GlcNAc
Procedure, shortened: as §1

[32] = target: Gal(b1-4)GlcNAc(b1-2)Man(a1-6)[GlcNAc(b1-2)Man(a1-3)]Man(b1-4)GlcNAc(b1-4)GlcNAc
Procedure, shortened: as §1

B1: PX14375A-pdi-503-28-503 (Parabacteroides distasonis) (protein)
chain: PLGSPEAGDISEERQAFLRLTAVYSVMKDFRYTWSMQCFGDVLSNDATYSGSSNDAQTFTLLENYQYQADHTEILNKYRYSYQCINKANLFIRDMEMADDALFSKYDKEQMIGEAKFIRAYTYFELVKTFGGVPCYTGVLDLDHERLGRASVEEIYSVIEQDLNDAVSVLPKKSEVANYESSYAGRITKGAAIAMQTRIYLYEKKYDEVKKAFEKFQNECGGEYSLVAPEDYTWQFSLDGEHCSSSILEVNMYNSSTQSSYNVNNGNRHVLMSMPRNMTIGFGCAQPTQALADAYDAEGDVIRKKTTLLSTEEAIEIETAAKGDVAPVTDDRTGWYNRKLYLAPGQREENRGNNQPTNLRLIRLAEVYLNYAEACYFSGDIANAQKYLNEVRSHVNLAPKNHTGSQLFEDIMNERHLEFGMEGFRFFDVVRVGWGEKVFNGTKKAEFGAKTPFSAGAEVLPIPQTEIDISDGLITN
glycan array binding signal (z-score) [1]: 0.404 | glycan array binding signal (z-score) [2]: 1.01 | glycan array binding signal (z-score) [3]: -0.395 | glycan array binding signal (z-score) [4]: -0.413 | glycan array binding signal (z-score) [5]: -0.628 | glycan array binding signal (z-score) [6]: -0.288 | glycan array binding signal (z-score) [7]: -0.478 | glycan array binding signal (z-score) [8]: -0.556 | glycan array binding signal (z-score) [9]: -0.261 | glycan array binding signal (z-score) (Gal(b1-3)GlcNAc6S): -0.227 | glycan array binding signal (z-score) [10]: 0.284 | glycan array binding signal (z-score) [11]: 0.802 | glycan array binding signal (z-score) [12]: 0.836 | glycan array binding signal (z-score) [13]: 0.345 | glycan array binding signal (z-score) [14]: 1.04 | glycan array binding signal (z-score) [15]: 0.232 | glycan array binding signal (z-score) [16]: -0.533 | glycan array binding signal (z-score) [17]: -0.33 | glycan array binding signal (z-score) [18]: -0.031 | glycan array binding signal (z-score) [19]: -0.698 | glycan array binding signal (z-score) (Gal(b1-4)Gal): -0.184 | glycan array binding signal (z-score) [20]: -0.798 | glycan array binding signal (z-score) [21]: -0.238 | glycan array binding signal (z-score) (Gal(b1-4)Glc): -0.065 | glycan array binding signal (z-score) (Gal(b1-4)Glc6S): 0.523 | glycan array binding signal (z-score) (Gal(b1-4)GlcNAc): -0.156 | glycan array binding signal (z-score) [22]: -0.261 | glycan array binding signal (z-score) (Gal(b1-4)GlcNAc(b1-2)Man): -0.034 | glycan array binding signal (z-score) [23]: 0.165 | glycan array binding signal (z-score) [24]: -0.224 | glycan array binding signal (z-score) [25]: 0.093 | glycan array binding signal (z-score) [26]: 0.362 | glycan array binding signal (z-score) [27]: -0.722 | glycan array binding signal (z-score) [28]: -0.186 | glycan array binding signal (z-score) [29]: -0.321 | glycan array binding signal (z-score) [30]: -0.824 | glycan array binding signal (z-score) [31]: -0.148 | glycan array binding signal (z-score) [32]: 1.37
